Results published in the supplement of paper PMC12823440, “Inhibitors supercharge kinase turnover through native proteolytic circuits” (Nature, 2025).
Counter-ions that a name gives are not always drawn. The list shows a part of the results. Hit calls seldom repeat between salt and free forms of one compound.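 Kinases were expressed as nanoluciferase fusions in K562 cells and luminescence was read every 4 h between 2 and 18 h as percent of control, DMSO set to 100% and a positive control to 0%. A time point counts as decreased when the signal drops significantly (2 sigma). The hit call is the authors' own, does not follow from the count of time points alone, and its rule is not shown.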

Amino acid sequences for entries named in this document (tags omitted). A change or cut given only in a name is not applied to a line headed by its entry.
UniProt O75460: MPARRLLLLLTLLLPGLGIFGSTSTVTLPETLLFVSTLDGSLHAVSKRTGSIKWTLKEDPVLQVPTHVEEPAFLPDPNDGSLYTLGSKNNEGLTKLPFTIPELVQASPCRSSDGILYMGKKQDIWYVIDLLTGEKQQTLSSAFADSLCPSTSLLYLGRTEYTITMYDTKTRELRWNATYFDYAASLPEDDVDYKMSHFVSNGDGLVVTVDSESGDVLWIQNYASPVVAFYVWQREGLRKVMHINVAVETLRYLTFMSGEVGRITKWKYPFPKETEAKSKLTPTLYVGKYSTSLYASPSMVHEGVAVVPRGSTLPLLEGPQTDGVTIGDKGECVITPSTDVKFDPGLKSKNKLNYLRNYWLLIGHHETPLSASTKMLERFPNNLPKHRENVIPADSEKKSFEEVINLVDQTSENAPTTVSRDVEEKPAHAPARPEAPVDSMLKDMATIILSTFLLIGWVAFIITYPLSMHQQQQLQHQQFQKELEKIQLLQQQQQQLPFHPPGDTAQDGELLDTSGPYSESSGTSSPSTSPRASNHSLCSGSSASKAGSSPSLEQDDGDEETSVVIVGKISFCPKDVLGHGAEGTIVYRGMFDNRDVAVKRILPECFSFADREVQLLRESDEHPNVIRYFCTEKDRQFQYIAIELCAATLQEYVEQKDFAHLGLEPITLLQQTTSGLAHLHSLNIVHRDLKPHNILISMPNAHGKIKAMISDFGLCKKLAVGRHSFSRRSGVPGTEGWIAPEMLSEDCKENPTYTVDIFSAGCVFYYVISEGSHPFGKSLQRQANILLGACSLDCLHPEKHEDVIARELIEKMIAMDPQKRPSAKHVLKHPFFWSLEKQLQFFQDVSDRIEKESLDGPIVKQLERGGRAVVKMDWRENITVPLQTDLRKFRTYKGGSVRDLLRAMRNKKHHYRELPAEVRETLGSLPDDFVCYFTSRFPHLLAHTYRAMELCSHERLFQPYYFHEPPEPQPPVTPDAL
UniProt P11362, whole entry, looked up: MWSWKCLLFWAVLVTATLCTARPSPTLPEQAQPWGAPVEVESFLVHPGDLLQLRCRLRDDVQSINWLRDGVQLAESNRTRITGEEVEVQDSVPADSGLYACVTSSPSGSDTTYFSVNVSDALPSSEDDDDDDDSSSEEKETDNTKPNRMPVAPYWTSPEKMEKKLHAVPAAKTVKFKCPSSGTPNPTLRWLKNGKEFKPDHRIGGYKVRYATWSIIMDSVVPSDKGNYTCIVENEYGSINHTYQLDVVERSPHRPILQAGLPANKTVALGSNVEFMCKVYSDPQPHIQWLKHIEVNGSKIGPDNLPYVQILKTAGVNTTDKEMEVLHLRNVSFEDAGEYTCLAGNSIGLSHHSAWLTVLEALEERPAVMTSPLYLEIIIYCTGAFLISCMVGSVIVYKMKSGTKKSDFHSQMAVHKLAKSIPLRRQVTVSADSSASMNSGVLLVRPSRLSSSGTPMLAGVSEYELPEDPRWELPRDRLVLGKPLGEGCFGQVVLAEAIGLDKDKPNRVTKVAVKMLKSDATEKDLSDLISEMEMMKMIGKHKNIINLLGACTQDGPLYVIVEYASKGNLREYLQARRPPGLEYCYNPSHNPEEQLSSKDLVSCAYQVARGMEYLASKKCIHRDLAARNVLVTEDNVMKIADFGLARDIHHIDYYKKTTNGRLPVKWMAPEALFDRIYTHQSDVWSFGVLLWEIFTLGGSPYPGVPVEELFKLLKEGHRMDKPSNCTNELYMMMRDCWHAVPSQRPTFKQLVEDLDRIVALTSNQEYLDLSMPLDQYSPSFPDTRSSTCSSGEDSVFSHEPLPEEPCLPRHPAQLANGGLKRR
UniProt P21802, whole entry, looked up: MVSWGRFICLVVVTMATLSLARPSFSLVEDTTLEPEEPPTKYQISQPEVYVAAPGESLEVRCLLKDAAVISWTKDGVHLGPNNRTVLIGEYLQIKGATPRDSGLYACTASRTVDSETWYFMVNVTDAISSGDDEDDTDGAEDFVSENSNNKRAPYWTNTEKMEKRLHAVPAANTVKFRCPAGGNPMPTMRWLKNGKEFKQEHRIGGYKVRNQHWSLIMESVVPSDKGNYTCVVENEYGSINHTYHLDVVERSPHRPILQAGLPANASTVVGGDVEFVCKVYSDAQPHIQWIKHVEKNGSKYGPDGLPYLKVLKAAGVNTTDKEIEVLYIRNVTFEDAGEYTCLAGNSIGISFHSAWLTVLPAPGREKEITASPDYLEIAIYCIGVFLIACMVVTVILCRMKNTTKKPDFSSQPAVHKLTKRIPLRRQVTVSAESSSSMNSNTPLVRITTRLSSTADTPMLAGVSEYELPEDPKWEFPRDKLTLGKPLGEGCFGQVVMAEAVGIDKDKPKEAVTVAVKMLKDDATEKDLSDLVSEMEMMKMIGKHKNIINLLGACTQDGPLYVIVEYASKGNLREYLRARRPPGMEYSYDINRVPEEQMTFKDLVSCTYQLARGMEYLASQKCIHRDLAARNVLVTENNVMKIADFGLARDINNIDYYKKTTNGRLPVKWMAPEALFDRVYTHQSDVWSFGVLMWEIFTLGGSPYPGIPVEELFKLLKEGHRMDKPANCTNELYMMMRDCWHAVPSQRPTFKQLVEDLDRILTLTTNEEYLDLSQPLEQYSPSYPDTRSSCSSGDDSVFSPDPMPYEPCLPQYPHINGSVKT
UniProt P22607, whole entry, looked up: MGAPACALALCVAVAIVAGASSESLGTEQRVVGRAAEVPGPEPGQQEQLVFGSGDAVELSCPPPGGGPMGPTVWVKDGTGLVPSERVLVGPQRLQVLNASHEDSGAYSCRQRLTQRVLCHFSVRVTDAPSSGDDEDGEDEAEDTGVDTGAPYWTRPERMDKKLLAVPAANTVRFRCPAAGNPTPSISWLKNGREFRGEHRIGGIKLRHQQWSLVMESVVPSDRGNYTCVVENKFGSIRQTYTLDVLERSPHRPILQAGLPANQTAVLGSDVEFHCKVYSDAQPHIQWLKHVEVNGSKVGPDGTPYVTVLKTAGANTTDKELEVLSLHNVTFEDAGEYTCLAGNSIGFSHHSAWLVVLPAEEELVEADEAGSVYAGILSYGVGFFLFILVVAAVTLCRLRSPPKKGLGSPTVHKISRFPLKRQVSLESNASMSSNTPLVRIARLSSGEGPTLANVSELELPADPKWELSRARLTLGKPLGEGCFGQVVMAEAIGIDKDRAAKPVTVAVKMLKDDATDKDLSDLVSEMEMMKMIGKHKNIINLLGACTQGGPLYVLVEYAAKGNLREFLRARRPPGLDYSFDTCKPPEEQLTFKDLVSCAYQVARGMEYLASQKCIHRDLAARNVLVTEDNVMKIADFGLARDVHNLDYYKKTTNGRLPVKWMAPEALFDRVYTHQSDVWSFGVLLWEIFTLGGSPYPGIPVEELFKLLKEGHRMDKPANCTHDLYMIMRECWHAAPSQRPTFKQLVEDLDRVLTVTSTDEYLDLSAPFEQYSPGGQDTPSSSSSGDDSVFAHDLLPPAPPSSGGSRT
UniProt P36888, whole entry: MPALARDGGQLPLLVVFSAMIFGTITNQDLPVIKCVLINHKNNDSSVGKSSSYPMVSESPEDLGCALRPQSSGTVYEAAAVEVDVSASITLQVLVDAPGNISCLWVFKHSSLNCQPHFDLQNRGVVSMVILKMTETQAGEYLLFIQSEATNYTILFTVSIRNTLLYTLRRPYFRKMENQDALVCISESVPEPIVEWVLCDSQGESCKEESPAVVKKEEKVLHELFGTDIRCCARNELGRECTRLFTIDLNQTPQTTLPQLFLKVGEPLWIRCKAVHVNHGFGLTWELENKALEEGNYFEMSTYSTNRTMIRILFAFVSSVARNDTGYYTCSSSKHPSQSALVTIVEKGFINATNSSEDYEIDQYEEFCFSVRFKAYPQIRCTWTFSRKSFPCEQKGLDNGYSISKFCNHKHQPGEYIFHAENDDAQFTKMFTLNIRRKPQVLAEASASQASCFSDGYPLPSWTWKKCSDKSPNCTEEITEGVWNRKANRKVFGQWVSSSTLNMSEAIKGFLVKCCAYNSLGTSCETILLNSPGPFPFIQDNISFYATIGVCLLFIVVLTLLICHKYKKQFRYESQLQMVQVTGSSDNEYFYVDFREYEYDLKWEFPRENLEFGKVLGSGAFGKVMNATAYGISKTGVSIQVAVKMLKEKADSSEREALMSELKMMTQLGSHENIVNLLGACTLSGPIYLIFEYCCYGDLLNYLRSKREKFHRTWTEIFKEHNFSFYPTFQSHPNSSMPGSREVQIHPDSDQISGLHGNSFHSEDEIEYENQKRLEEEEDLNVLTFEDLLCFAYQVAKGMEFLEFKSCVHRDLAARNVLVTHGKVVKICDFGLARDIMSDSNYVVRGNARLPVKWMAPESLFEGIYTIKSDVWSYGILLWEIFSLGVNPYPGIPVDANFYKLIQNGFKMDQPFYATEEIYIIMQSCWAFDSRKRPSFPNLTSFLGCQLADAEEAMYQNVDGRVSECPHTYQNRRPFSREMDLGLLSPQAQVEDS
UniProt P06241, whole entry, looked up: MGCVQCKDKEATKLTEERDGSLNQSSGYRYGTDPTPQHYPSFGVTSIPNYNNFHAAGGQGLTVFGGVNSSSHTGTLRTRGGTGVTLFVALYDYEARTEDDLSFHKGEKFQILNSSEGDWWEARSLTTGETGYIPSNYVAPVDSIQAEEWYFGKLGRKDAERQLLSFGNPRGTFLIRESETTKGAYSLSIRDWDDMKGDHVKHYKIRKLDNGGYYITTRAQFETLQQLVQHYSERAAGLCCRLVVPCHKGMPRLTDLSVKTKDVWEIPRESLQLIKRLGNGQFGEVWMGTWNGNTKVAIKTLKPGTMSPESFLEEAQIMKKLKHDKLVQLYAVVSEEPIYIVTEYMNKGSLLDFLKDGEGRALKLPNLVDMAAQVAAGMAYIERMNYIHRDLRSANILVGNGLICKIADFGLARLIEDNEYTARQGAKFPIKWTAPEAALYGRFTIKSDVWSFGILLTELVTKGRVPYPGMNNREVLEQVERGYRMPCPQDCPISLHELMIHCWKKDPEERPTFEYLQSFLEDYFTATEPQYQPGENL
UniProt P14616: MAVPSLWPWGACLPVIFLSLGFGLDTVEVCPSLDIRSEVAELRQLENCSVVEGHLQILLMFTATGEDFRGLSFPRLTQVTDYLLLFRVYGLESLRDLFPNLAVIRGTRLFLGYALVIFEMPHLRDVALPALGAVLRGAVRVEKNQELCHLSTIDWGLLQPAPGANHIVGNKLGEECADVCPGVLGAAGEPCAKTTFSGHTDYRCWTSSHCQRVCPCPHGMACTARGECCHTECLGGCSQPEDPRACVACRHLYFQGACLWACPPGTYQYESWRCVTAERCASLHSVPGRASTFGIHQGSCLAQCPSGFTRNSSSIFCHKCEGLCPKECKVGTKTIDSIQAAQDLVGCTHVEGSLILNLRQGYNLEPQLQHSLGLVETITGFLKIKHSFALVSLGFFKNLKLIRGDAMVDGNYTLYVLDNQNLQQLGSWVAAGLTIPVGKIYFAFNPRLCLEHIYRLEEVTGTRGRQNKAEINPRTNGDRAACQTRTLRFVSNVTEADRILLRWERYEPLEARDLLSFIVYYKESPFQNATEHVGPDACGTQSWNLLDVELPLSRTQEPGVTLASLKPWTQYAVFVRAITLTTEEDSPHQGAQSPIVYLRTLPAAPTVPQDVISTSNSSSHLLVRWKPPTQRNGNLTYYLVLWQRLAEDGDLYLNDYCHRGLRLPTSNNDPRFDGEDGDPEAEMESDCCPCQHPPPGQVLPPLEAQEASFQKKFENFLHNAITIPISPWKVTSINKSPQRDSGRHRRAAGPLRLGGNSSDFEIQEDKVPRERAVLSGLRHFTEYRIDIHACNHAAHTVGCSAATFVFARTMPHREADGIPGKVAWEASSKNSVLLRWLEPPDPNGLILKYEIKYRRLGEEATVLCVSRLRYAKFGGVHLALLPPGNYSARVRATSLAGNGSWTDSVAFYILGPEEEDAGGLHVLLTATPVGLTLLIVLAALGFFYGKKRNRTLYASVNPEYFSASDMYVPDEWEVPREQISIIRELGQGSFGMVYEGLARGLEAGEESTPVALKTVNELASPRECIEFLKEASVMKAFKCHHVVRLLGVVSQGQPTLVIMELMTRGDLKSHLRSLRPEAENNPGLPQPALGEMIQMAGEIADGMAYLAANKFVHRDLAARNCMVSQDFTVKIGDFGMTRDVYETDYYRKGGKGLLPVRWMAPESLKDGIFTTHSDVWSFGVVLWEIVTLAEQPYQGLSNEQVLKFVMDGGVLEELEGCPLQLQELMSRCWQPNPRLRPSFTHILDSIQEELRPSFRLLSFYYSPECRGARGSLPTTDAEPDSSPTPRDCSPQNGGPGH

How the values were obtained:
Assay in all cases: kinase-Nluc reporter destabilization hit call (1 = scored as downregulated) (binary); higher = compound decreases kinase abundance
Details in all cases: K562; 2-18 h
[1] = target: ERN1 (UniProt O75460)
[2] = target: FGFR1 (UniProt P11362)
[3] = target: FGFR2 (UniProt P21802)
[4] = target: FGFR3 (UniProt P22607)
[5] = target: FGR (UniProt P09769)
[6] = target: FLT3 (UniProt P36888)
[7] = target: FYN (UniProt P06241)
[8] = target: GSK3A (UniProt P49840)
[9] = target: HER2 (UniProt P04626)
[10] = target: INSRR (UniProt P14616)

Measured: kinase-Nluc reporter destabilization hit call

CC[C@H](C)[C@H](NC(=O)[C@H](CCC(=O)O)NC(=O)[C@H](CCCN=C(N)N)NC(=O)[C@H](CCCN=C(N)N)NC(=O)[C@@H](N)CCCCN)C(=O)N[C@@H](CC(C)C)C(=O)N[C@@H](CO)C(=O)N[C@@H](CCCN=C(N)N)C(=O)N[C@@H](CCCN=C(N)N)C(=O)N1CCC[C@H]1C(=O)N[C@@H](CO)C(=O)N[C@@H](Cc1ccc(O)cc1)C(=O)N[C@@H](CCCN=C(N)N)C(=O)O [CREBtide] (10 µM)
inactive: [1] 0 | [2] 0 | [3] 0 | [4] 0 | [5] 0 | [6] 0 | [7] 0 | [8] 0 | [9] 0 | [10] 0

c1ccc(-c2oc3ncnc(NC[C@@H]4CCCO4)c3c2-c2ccccc2)cc1 (2.5 µM)
inactive: [1] 0 | [2] 0 | [3] 0 | [4] 0 | [5] 0 | [6] 0 | [7] 0 | [8] 0 | [9] 0 | [10] 0

CN(CC(=O)N(Cc1ccc(C2CCCCC2)cc1)c1ccc(C(=O)O)c(O)c1)S(=O)(=O)c1c(F)c(F)c(F)c(F)c1F (2.5 µM)
inactive: [1] 0 | [2] 0 | [3] 0 | [4] 0 | [5] 0 | [6] 0 | [7] 0 | [8] 0 | [9] 0 | [10] 0

Cc1cnc(Nc2ccc(N3CCN(C)CC3)cc2)nc1Nc1cccc(S(=O)(=O)NC(C)(C)C)c1 (2.5 µM)
inactive: [1] 0 | [2] 0 | [3] 0 | [4] 0 | [5] 0 | [6] 0 | [7] 0 | [8] 0 | [9] 0 | [10] 0

O=c1nc(N2CCOCC2)oc2c(-c3cccc4c3sc3ccccc34)cccc12 (10 µM)
inactive: [1] 0 | [2] 0 | [3] 0 | [4] 0 | [5] 0 | [6] 0 | [7] 0 | [8] 0 | [9] 0 | [10] 0

CC(C)(C)Cn1c(N)nc2ccc(-c3[nH]c(C(C)(C)C)nc3-c3ccc(F)cc3)nc21 [Ralimetinib dimesylate] (2.5 µM)
inactive: [1] 0 | [2] 0 | [3] 0 | [4] 0 | [5] 0 | [6] 0 | [7] 0 | [8] 0 | [9] 0 | [10] 0

C=CS(=O)(=O)c1ccc(Nc2nc(OCC3CCCCC3)c3[nH]cnc3n2)cc1 (2.5 µM)
inactive: [1] 0 | [2] 0 | [3] 0 | [4] 0 | [5] 0 | [6] 0 | [7] 0 | [8] 0 | [9] 0 | [10] 0

O=c1[nH]ccc2cc(OC3CCNCC3)ccc12 (10 µM)
inactive: [1] 0 | [2] 0 | [3] 0 | [4] 0 | [5] 0 | [6] 0 | [7] 0 | [8] 0 | [9] 0 | [10] 0

O=c1cc(-c2ccc(O)c(O)c2O)oc2ccccc12 (10 µM)
inactive: [1] 0 | [2] 0 | [3] 0 | [4] 0 | [5] 0 | [6] 0 | [7] 0 | [8] 0 | [9] 0 | [10] 0

CCN1/C(=C/C(C)=O)Sc2ccc(OC)cc21 (10 µM)
inactive: [1] 0 | [2] 0 | [3] 0 | [4] 0 | [5] 0 | [6] 0 | [7] 0 | [8] 0 | [9] 0 | [10] 0

CC[C@@H](N)CNc1ccnc(-c2cc(-c3cnn(C)c3)ccc2O)n1 (2.5 µM)
inactive: [1] 0 | [2] 0 | [3] 0 | [4] 0 | [5] 0 | [6] 0 | [7] 0 | [8] 0 | [9] 0 | [10] 0

CC(C)(C)c1cc(C(c2cc3c(cc2O)OCO3)N2CCOCC2)cc(C(C)(C)C)c1O (stereo not given) (2.5 µM)
inactive: [1] 0 | [2] 0 | [3] 0 | [4] 0 | [5] 0 | [6] 0 | [7] 0 | [8] 0 | [9] 0 | [10] 0

Oc1ccccc1C(=S)N1CCCC1 (10 µM)
inactive: [1] 0 | [2] 0 | [3] 0 | [4] 0 | [5] 0 | [6] 0 | [7] 0 | [8] 0 | [9] 0 | [10] 0

COC(=O)N[C@@H](C)CNc1nccc(-c2cn(C(C)C)nc2-c2cc(Cl)cc(NS(C)(=O)=O)c2F)n1 [Encorafenib] (10 µM)
inactive: [1] 0 | [2] 0 | [3] 0 | [4] 0 | [5] 0 | [6] 0 | [7] 0 | [8] 0 | [9] 0 | [10] 0

O=C1NC(=O)C(c2cnc3ccccn23)=C1c1cn2c3c(cc(F)cc13)CN(C(=O)N1CCCCC1)CC2 (2.5 µM)
inactive: [1] 0 | [2] 0 | [3] 0 | [4] 0 | [5] 0 | [6] 0 | [7] 0 | [8] 0 | [9] 0 | [10] 0

CCCCOc1ccc(CC/C=C2\SC(=O)N(CCN)C2=O)cc1 [K145 (hydrochloride)] (2.5 µM)
inactive: [1] 0 | [2] 0 | [3] 0 | [4] 0 | [5] 0 | [6] 0 | [7] 0 | [8] 0 | [9] 0 | [10] 0

CN(C)c1ncnc2nc[nH]c12 [6-(Dimethylamino)purine] (10 µM)
inactive: [1] 0 | [2] 0 | [3] 0 | [4] 0 | [5] 0 | [6] 0 | [7] 0 | [8] 0 | [9] 0 | [10] 0

CCOc1c([C@H](C)n2nc(C)c3c(N)ncnc32)cc(Cl)c(F)c1[C@@H]1CNC(=O)C1 [Parsaclisib (hydrochloride)] (10 µM)
inactive: [1] 0 | [2] 0 | [3] 0 | [4] 0 | [5] 0 | [6] 0 | [7] 0 | [8] 0 | [9] 0 | [10] 0

O=S(=O)(c1cccc2cnccc12)N1CCNCC1 (10 µM)
inactive: [1] 0 | [2] 0 | [3] 0 | [4] 0 | [5] 0 | [6] 0 | [7] 0 | [8] 0 | [9] 0 | [10] 0

O=C(Nc1cccc(-c2nncn2C2CC2)c1)c1cc(-n2cnc(C3CC3)c2)ccn1 (10 µM)
inactive: [1] 0 | [2] 0 | [3] 0 | [4] 0 | [5] 0 | [6] 0 | [7] 0 | [8] 0 | [9] 0 | [10] 0

O=c1ccc2ccc(O)c(O)c2o1 [Daphnetin] (10 µM)
inactive: [1] 0 | [2] 0 | [3] 0 | [4] 0 | [5] 0 | [6] 0 | [7] 0 | [8] 0 | [9] 0 | [10] 0

COc1cc2ncnc(Nc3ccc(NC(=O)c4ccccc4)cc3)c2cc1OC [Aurora kinase inhibitor-2] (2.5 µM)
inactive: [1] 0 | [2] 0 | [3] 0 | [4] 0 | [5] 0 | [6] 0 | [7] 0 | [8] 0 | [9] 0 | [10] 0

C=CC(=O)N1CCC[C@@H](n2nc(C(=O)Nc3ccc(CC(=O)N(C)C)c(C)c3C)c3c(N)ncnc32)C1 (10 µM)
inactive: [1] 0 | [2] 0 | [3] 0 | [4] 0 | [5] 0 | [6] 0 | [7] 0 | [8] 0 | [9] 0 | [10] 0

NCCCCCCNS(=O)(=O)c1cccc2c(Cl)cccc12 [W-7 (hydrochloride)] (10 µM)
inactive: [1] 0 | [2] 0 | [3] 0 | [4] 0 | [5] 0 | [6] 0 | [7] 0 | [8] 0 | [9] 0 | [10] 0

O=C(O)c1ccc(-c2c[nH]c3ncc(-c4ccccc4)cc23)cc1C1CCCC1 (2.5 µM)
inactive: [1] 0 | [2] 0 | [3] 0 | [4] 0 | [5] 0 | [6] 0 | [7] 0 | [8] 0 | [9] 0 | [10] 0

CNC(=O)c1ccc(-c2cnc3cnc(-c4ccccc4)cn23)cc1 (10 µM)
inactive: [1] 0 | [2] 0 | [3] 0 | [4] 0 | [5] 0 | [6] 0 | [7] 0 | [8] 0 | [9] 0 | [10] 0

6 entries already listed, arranged by number of heavy atoms, falling.
CC[C@H](C)[C@H](NC(=O)[C@H](CCC(=O)O)NC(=O)[C@H](CCCN=C(N)N)NC(=O)[C@H](CCCN=C(N)N)NC(=O)[C@@H](N)CCCCN)C(=O)N[C@@H](CC(C)C)C(=O)N[C@@H](CO)C(=O)N[C@@H](CCCN=C(N)N)C(=O)N[C@@H](CCCN=C(N)N)C(=O)N1CCC[C@H]1C(=O)N[C@@H](CO)C(=O)N[C@@H](Cc1ccc(O)cc1)C(=O)N[C@@H](CCCN=C(N)N)C(=O)O [CREBtide] (10 µM)
inactive: [1] 0 | [2] 0 | [3] 0 | [4] 0 | [5] 0 | [6] 0 | [7] 0 | [8] 0 | [9] 0 | [10] 0

O=C1NC(=O)C(c2cnc3ccccn23)=C1c1cn2c3c(cc(F)cc13)CN(C(=O)N1CCCCC1)CC2 (2.5 µM)
inactive: [1] 0 | [2] 0 | [3] 0 | [4] 0 | [5] 0 | [6] 0 | [7] 0 | [8] 0 | [9] 0 | [10] 0

CC(C)(C)Cn1c(N)nc2ccc(-c3[nH]c(C(C)(C)C)nc3-c3ccc(F)cc3)nc21 [Ralimetinib dimesylate] (2.5 µM)
inactive: [1] 0 | [2] 0 | [3] 0 | [4] 0 | [5] 0 | [6] 0 | [7] 0 | [8] 0 | [9] 0 | [10] 0

COc1cc2ncnc(Nc3ccc(NC(=O)c4ccccc4)cc3)c2cc1OC [Aurora kinase inhibitor-2] (2.5 µM)
inactive: [1] 0 | [2] 0 | [3] 0 | [4] 0 | [5] 0 | [6] 0 | [7] 0 | [8] 0 | [9] 0 | [10] 0

CNC(=O)c1ccc(-c2cnc3cnc(-c4ccccc4)cn23)cc1 (10 µM)
inactive: [1] 0 | [2] 0 | [3] 0 | [4] 0 | [5] 0 | [6] 0 | [7] 0 | [8] 0 | [9] 0 | [10] 0

NCCCCCCNS(=O)(=O)c1cccc2c(Cl)cccc12 [W-7 (hydrochloride)] (10 µM)
inactive: [1] 0 | [2] 0 | [3] 0 | [4] 0 | [5] 0 | [6] 0 | [7] 0 | [8] 0 | [9] 0 | [10] 0

The listing continues:

CC1(COc2ccc3c(c2)ncn3-c2ccc3cccc(N4CCC(N)CC4)c3n2)COC1 [Crenolanib] (2.5 µM)
inactive: [1] 0 | [2] 0 | [3] 0 | [4] 0 | [5] 0 | [6] 0 | [7] 0 | [8] 0 | [9] 0 | [10] 0

O=C(O)CCc1ccc(NCc2cccc(Oc3ccccc3)c2)cc1 (10 µM)
inactive: [1] 0 | [2] 0 | [3] 0 | [4] 0 | [5] 0 | [6] 0 | [7] 0 | [8] 0 | [9] 0 | [10] 0

CC(C)c1cc(/C=C(\C#N)C(N)=O)cc(C(C)C)c1O (10 µM)
inactive: [1] 0 | [2] 0 | [3] 0 | [4] 0 | [5] 0 | [6] 0 | [7] 0 | [8] 0 | [9] 0 | [10] 0

CN(C)Cc1cccc(N=C(c2ccccc2)c2c(O)[nH]c3cc(C(=O)N(C)C)ccc23)c1 (10 µM)
inactive: [1] 0 | [2] 0 | [3] 0 | [4] 0 | [5] 0 | [6] 0 | [7] 0 | [8] 0 | [9] 0 | [10] 0

CNC(=O)c1cc(Oc2ccc3nc(N[C@@H]4CCCC[C@H]4O)sc3c2)ccn1 (10 µM)
inactive: [1] 0 | [2] 0 | [3] 0 | [4] 0 | [5] 0 | [6] 0 | [7] 0 | [8] 0 | [9] 0 | [10] 0

CN1CC[C@H](c2c(O)cc(O)c3c(=O)cc(-c4ccc(C(F)(F)F)cc4Cl)oc23)[C@H]1CO [(2S,3R)-Voruciclib (hydrochloride)] (2.5 µM)
inactive: [1] 0 | [2] 0 | [3] 0 | [4] 0 | [5] 0 | [6] 0 | [7] 0 | [8] 0 | [9] 0 | [10] 0

COc1c(C)c(C(=O)c2ccc(N)c(C(=O)O)c2)n2ccccc12 (10 µM)
inactive: [1] 0 | [2] 0 | [3] 0 | [4] 0 | [5] 0 | [6] 0 | [7] 0 | [8] 0 | [9] 0 | [10] 0

CC(=O)Nc1nc(C)c(-c2nc(N3CCCC(O)C3)no2)s1 (stereo not given) (10 µM)
inactive: [1] 0 | [2] 0 | [3] 0 | [4] 0 | [5] 0 | [6] 0 | [7] 0 | [8] 0 | [9] 0 | [10] 0
